From ChEMBL document CHEMBL3988442, “University of Dundee, Small-Polar-MMV Screening Library” (2021).

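Whole-cell assay for inhibitors of Mycobacterium tuberculosis growth, labelled Cornell in the record; the read-out is not stated. The concentration is filed as 10 mM, unlikely as a test dose, so the dose is not known. Higher means stronger inhibition (inferred from two other growth screens of the library). About 53,000 compounds were tested under these conditions; 1.7% (about 900) showed 50% or more at least once.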

Each number is a percent effect as filed. The controls that fix the scale are not given in the record; negative values are as filed. The compounds are a random part of those screened.

| # | compound | Percent Effect |
|---|---|---|
| 1 | `COc1ccccc1Oc1ncccc1CNC(=O)CN1CCCC1=O` | -25.4 |
| 2 | `COc1ccc(-c2nc(CN3CCN(CCO)CC3)co2)cc1` | -17.81 |
| 3 | `O=C1CC(c2cccs2)Cc2nc(O)c(C(=O)N3CCCC3)cc21` (stereo not drawn) | -41.07 |
| 4 | `CC(=O)c1ccc(N2CCN(C(=O)c3cc(C(C)C)nn3C)CC2)cc1` | 16.14 |
| 5 | `CC1(C)CNC(=O)c2nc(C3CCCN(C(=O)C4CC4)C3)[nH]c2C1` (stereo not drawn) | 7.286 |
| 6 | `CN(Cc1ccc([S+](C)[O-])cc1)c1ccc(Br)cn1` (stereo not drawn) | 6.538 |
| 7 | `O=C(O)C(F)(F)F.O=C1CC(c2ccncc2)C2(CCN(C(=O)c3ccc[nH]3)CC2)N1` (stereo not drawn) | -25.12 |
| 8 | `COc1ccc2c(c1)OCC(CNC(=O)c1cc(C(C)C)on1)C2` (stereo not drawn) | -28.77 |
| 9 | `CCc1nnc2n1CCN(Cc1csc(-c3ccc(C)o3)n1)C2` | 18.32 |
| 10 | `Cc1ccsc1CNC1CCCc2c1cnn2C.Cl` (stereo not drawn) | -40.13 |
| 11 | `Cc1nc(-c2cnn(C)c2)nc2c1CN(C(=O)c1ccc[nH]1)CC2` | 18.99 |
| 12 | `O=C(O)C(F)(F)F.[H][C@]12CCN(C(=O)c3cccc(OC)c3)CC[C@@]1([H])S(=O)(=O)CCN2C` | 11.43 |
| 13 | `COc1cc(CN2CCC(NC(=O)c3cccn3C)C2)cc(OC)c1` (stereo not drawn) | 10.23 |
| 14 | `COc1ccc(-c2cc(C(=O)Nc3nc[nH]n3)[nH]n2)cc1` | 9.296 |
| 15 | `[H][C@@]12COC[C@@H](C(=O)N3CCOCC3)[C@]1([H])CN(C1CCCCC1)C2` | -5.292 |
| 16 | `Cc1ccc(Oc2ncccc2C(=O)O)c(C)c1` | -5.349 |
| 17 | `Cc1cc(N(C)C)nc(N2CC(n3cccn3)C2)n1` | 5.316 |
| 18 | `CCOC(=O)c1ccc(Nc2ccc(OC)c(N3CCCC3=O)c2)nc1` | 1.824 |
| 19 | `CCNC(=O)NC(C)c1nc(-c2ccc(Br)cc2)no1` (stereo not drawn) | 22.79 |
| 20 | `O=C(COCC(F)(F)C(F)F)N1CCC2(CCCN(CC3CC3)C2=O)C1` (stereo not drawn) | 8.339 |
| 21 | `O=C(O)C(F)(F)F.O=C(O)C(F)(F)F.O=C(O)C(F)(F)F.[H][C@@]12CO[C@@H](CN3CCN(C)CC3)[C@]1([H])CCN(Cc1cccc(F)c1)C2` | 13.36 |
| 22 | `COc1cccc2c1OCC(C(=O)N1CCN(S(=O)(=O)N(C)C)CC1)C2` (stereo not drawn) | -1.623 |
| 23 | `Cc1nc(C)n(CC2CCCN2Cc2ncc(C(C)(C)C)o2)n1` (stereo not drawn) | -0.7723 |
| 24 | `[H][C@@]12CCCO[C@]1([H])[C@H](OCc1cccnc1)CN2C(=O)c1ccncc1` | -6.294 |
| 25 | `Cc1nc[nH]c1C(=O)N1CCCC2(C1)C(=O)N(C)c1ccccc12` (stereo not drawn) | 29.5 |
| 26 | `Cc1ncc(C)c(N2CCC(CCc3ccccc3)(C(=O)O)CC2)n1` | 8.848 |
| 27 | `Cc1ccc(CN2CCn3cc(CN4CCN(C)CC4)nc3C2)cc1.O=C(O)C(F)(F)F.O=C(O)C(F)(F)F.O=C(O)C(F)(F)F` | -2.623 |
| 28 | `Cc1cc(N2CCN(Cc3cn(C)nc3C)CC2)cc(C2CCNC2)n1.Cl` (stereo not drawn) | 5.373 |
| 29 | `N#Cc1ccccc1C(=O)N1C[C@@H](CN2CCCCCC2)[C@@H](CO)C1` | -5.711 |
| 30 | `O=C(O)C1CCN(c2nc3c(-c4ccccc4F)csc3c(=O)[nH]2)CC1` | 13.29 |
| 31 | `CCOc1ccc(CC(CNC(=O)c2ccoc2C)C(N)=O)cc1` (stereo not drawn) | -54.11 |
| 32 | `Cc1ccnc(CC(C)N(C)Cc2ccc3c(c2)CCO3)c1` (stereo not drawn) | -49.32 |
| 33 | `Cc1cccc(-c2nc(CN3CCc4c(ncn4C)C3)no2)c1` | -7.033 |
| 34 | `Cn1cc(CN2CCn3cc(CNC(=O)CC4CC4)nc3C2)cn1.O=C(O)C(F)(F)F` | 7.723 |
| 35 | `CN1CCN(CC2CC2)C(=O)C12CCN(C(=O)c1ccnnc1)CC2.O=C(O)C(F)(F)F` | 14.69 |
| 36 | `CC(=O)N1CCN(C(=O)c2sc(-c3ccccc3F)nc2C)CC1` | -51.33 |
| 37 | `[H][C@]12CC[C@]([H])(CN(S(C)(=O)=O)C1)N(CCC(=O)NCc1ccco1)C2` | 3.776 |
| 38 | `O=C(O)c1csc(S(=O)(=O)N2CCN(Cc3c(F)cccc3Cl)CC2)c1` | 7.085 |
| 39 | `CN(Cc1ccon1)C(=O)CN1C(=O)OC(C)(C)C1=O` | 11.16 |
| 40 | `Cc1nc(N2CCCC2)nc2c1CCN(C(=O)c1ccoc1C)CC2` | 20.8 |
| 41 | `CCN1CCC2(CCC1=O)CN(c1cnc3ccccc3n1)CCN2C` (stereo not drawn) | -5.132 |
| 42 | `[H][C@@]12COC[C@@H](CC(=O)N3CCCO3)[C@]1([H])CN(Cc1c(C)noc1C)C2` | 26.25 |
| 43 | `Cn1cc(CC2CC(=O)N(Cc3ccccc3OC(F)F)C2=O)cn1` (stereo not drawn) | 10.62 |
| 44 | `COc1ccccc1CC(=O)N1CCN(Cc2ccco2)C[C@@H]1C` | 3.597 |
| 45 | `[H][C@]12CC[C@]([H])(CN(S(=O)(=O)N(C)C)C1)N(C(=O)c1cn(C)nc1C)C2` | 7.649 |
| 46 | `CC(=O)N1CCCC2(CCC(=O)N2Cc2cccnc2)C1.O=C(O)C(F)(F)F` (stereo not drawn) | -37.46 |
| 47 | `Nc1nc2nc(C3CCN(C(=O)c4cscn4)C3)ccc2s1` (stereo not drawn) | -97.96 |
| 48 | `COc1ccc(Nc2nc3c(C)nn(C)c3c(=O)n2C)cc1` | 7.688 |
| 49 | `CCn1nc(C)c(CNCCn2cc(C)cn2)c1C` | 1.75 |
| 50 | `CN(C(=O)Cc1ccccc1Cl)C1CCN(c2ccccn2)CC1` | 6.985 |
| 51 | `O=C(O)[C@@H]1CN(C(=O)CSCC2CC2)C[C@H]1c1ccccn1` | -1.818 |
| 52 | `Cc1c[nH]c(C(=O)N2CCn3nc(C(=O)NC4CC4)cc3C2)n1` | -18.62 |
| 53 | `CCc1nc(CCNC(=O)NC2CC(=O)N(C(C)(C)C)C2)cs1` (stereo not drawn) | -10.26 |
| 54 | `COC(=O)[C@H](CC(C)C)NC(=O)c1snnc1-c1ccc(OC)cc1` | 25.36 |
| 55 | `Cc1ncnc2c1CCN(C(=O)Cc1cccc(F)c1)CC2` | 27.18 |
| 56 | `O=C(O)C(F)(F)F.[H][C@@]12CN(Cc3cccs3)CCO[C@]1([H])CN(S(=O)(=O)CC)C2` | -1.949 |
| 57 | `CCn1cc(CN2CCC(c3nnc(CN(C)C)n3CC)CC2)cn1` | -22.11 |
| 58 | `CS(=O)(=O)N1CCCC(c2nc(-c3ccccc3)c[nH]2)C1` (stereo not drawn) | 4.975 |
| 59 | `CCC(O)Cn1nc(-c2ccc(C(=O)O)cc2)cc1-c1ccc(F)cc1` (stereo not drawn) | 43.49 |
| 60 | `CN(C)c1cccc(C(=O)Nc2cnn(CC(N)=O)c2)c1` | 5.683 |
| 61 | `Cc1c(C(=O)N2CCC(C(O)c3ccc(Cl)cc3)CC2)cnn1C` (stereo not drawn) | -14.83 |
| 62 | `Cl.O=C(CN1CCC[C@@H]1C(=O)O)NCCOc1cccc(C(F)(F)F)c1` | 7.466 |
| 63 | `CCC(CO)N(Cc1cccnc1)C(=O)c1ccc(C(F)(F)F)nc1O` (stereo not drawn) | 2.948 |

The last 6 entries again:

- CS(=O)(=O)N1CCCC(c2nc(-c3ccccc3)c[nH]2)C1 (stereo not drawn) | 4.975%
- CCC(O)Cn1nc(-c2ccc(C(=O)O)cc2)cc1-c1ccc(F)cc1 (stereo not drawn) | 43.49%
- CN(C)c1cccc(C(=O)Nc2cnn(CC(N)=O)c2)c1 | 5.683%
- Cc1c(C(=O)N2CCC(C(O)c3ccc(Cl)cc3)CC2)cnn1C (stereo not drawn) | -14.83%
- Cl.O=C(CN1CCC[C@@H]1C(=O)O)NCCOc1cccc(C(F)(F)F)c1 | 7.466%
- CCC(CO)N(Cc1cccnc1)C(=O)c1ccc(C(F)(F)F)nc1O (stereo not drawn) | 2.948%